The target in the test is p21-activated kinase 1 (PAK1) (rat (endogenous in primary rat OPCs)) (UniProt P35465). Put plainly: co-IP; PAK1 antibody (#2602) or rabbit IgG isotype control cross-linked to Protein A/G magnetic beads; 1 mg OPC protein extract, overnight at 4 °C; low-pH elution; immunoblot for PDGFRa. A general note: Immunoblotting shows a protein as a band on a membrane.

Sequences of proteins named here, by UniProt entry; tags and fusion partners are left off. Residues count along the entry.
UniProt P35465: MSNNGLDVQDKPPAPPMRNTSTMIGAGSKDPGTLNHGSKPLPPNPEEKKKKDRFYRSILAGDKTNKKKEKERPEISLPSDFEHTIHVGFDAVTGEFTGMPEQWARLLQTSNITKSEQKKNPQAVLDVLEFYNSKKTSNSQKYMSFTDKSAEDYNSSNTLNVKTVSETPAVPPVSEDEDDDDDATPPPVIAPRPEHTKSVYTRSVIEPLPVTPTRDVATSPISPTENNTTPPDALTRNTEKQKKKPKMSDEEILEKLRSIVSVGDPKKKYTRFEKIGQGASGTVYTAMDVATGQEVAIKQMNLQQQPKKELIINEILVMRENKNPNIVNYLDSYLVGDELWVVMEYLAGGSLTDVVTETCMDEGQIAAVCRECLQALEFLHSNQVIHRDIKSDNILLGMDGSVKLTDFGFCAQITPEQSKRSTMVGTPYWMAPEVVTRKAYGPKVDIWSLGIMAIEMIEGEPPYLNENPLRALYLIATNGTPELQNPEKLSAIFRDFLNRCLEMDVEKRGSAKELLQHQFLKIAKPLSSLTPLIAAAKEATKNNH
UniProt P20786, residues 24-1088: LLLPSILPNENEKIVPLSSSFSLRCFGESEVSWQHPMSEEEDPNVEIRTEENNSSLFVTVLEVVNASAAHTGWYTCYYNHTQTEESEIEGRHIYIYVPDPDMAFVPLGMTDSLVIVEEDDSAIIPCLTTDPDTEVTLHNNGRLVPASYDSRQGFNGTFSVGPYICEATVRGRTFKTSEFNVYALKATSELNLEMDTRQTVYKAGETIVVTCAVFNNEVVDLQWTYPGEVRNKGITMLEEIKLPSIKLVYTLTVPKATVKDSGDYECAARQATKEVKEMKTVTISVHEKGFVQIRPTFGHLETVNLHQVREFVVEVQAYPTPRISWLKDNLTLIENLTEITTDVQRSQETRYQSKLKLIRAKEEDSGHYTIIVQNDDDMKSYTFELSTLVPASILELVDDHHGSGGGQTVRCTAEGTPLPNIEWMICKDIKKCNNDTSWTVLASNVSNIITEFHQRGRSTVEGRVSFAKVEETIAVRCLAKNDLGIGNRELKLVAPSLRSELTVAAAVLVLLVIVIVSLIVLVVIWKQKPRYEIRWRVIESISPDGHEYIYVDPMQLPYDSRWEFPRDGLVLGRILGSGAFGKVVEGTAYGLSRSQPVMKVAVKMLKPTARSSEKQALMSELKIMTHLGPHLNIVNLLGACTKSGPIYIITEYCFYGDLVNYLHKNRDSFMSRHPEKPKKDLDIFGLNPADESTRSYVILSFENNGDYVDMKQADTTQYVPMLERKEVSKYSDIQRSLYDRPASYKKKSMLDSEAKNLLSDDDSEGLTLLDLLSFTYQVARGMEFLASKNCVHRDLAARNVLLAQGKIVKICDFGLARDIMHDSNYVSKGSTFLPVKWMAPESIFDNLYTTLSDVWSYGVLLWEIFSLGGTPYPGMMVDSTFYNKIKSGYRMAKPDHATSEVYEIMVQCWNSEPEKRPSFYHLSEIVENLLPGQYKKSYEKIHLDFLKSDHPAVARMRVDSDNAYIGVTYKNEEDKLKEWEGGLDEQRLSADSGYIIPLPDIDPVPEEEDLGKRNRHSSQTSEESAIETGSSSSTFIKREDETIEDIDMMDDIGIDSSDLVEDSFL

Results are given in words; binding and its absence hold for the method and conditions named. Binding seen in cells or lysates may run through a third protein. Some entries that bind do so weakly or less than the wild type.

In the case of “PDGFRa (from UniProt P20786 24-1088) (receptor)”, the binding entry is listed as “binds”.

(Values after paper PMC12209112.)
